{
  "sequences": {"note": "Amino acid sequences for entries named in this document (tags omitted).", "UniProt Q13887": "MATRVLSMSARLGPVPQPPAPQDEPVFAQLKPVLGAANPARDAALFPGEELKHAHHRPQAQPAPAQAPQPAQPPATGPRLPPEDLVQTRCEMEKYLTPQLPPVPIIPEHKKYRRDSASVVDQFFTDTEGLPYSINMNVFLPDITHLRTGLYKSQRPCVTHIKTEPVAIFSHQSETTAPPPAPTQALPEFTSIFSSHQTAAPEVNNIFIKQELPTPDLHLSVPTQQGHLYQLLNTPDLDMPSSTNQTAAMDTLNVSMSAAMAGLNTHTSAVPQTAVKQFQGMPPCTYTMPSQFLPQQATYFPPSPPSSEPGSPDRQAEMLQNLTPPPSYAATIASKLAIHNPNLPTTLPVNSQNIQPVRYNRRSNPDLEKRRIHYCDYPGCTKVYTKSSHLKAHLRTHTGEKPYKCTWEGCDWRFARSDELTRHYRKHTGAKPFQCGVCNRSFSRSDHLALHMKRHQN", "UniProt O15379": "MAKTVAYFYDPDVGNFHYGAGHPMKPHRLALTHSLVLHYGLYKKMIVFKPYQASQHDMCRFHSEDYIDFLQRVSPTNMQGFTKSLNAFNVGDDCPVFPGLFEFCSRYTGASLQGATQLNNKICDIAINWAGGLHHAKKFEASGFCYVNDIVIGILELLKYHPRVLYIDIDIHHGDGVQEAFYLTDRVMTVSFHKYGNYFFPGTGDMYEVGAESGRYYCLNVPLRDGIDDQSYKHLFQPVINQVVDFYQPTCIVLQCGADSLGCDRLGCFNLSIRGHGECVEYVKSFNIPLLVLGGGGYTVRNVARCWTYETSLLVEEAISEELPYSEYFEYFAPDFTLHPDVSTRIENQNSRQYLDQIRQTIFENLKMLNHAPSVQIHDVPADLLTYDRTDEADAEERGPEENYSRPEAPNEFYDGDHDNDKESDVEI"},
  "source": "paper PMC6735397",
  "key": {"[1]": {"molecular_target": "endogenous KLF5 (human (endogenous in C4-2 and CW22RV1)) (UniProt Q13887)", "test": "co-IP; endogenous proteins in C4-2 and CW22RV1 cells; lysis buffer 50 mM Tris-HCl pH 7.5, 150 mM NaCl, 1% Nonidet P-40, 0.5% sodium deoxycholate; indicated antibodies and Protein G Plus beads, 4°C overnight; Western blot"}, "[2]": {"molecular_target": "Flag-linked KLF5 (exogenous KLF5) (UniProt Q13887)", "test": "co-IP; exogenous Flag-linked KLF5 and pcDNA3-linked HDAC3 in HEK293 cells; lysis buffer 50 mM Tris-HCl pH 7.5, 150 mM NaCl, 1% Nonidet P-40, 0.5% sodium deoxycholate; indicated antibodies and Protein G Plus beads, 4°C overnight; Western blot"}},
  "note": "No constants are given. Whether binding was seen depends on the method and setting. In cells and extracts the contact can be indirect. Some entries that bind do so weakly or less than the wild type.",
  "data": [
    {"substance": "endogenous HDAC3 (from UniProt O15379 1-428)", "values": [
      {"measurement": "binding", "setting": "[1]", "value": "binds"}
    ]},
    {"substance": "pcDNA3-linked HDAC3 (from UniProt O15379 1-428)", "values": [
      {"measurement": "binding", "setting": "[2]", "value": "binds"}
    ]}
  ]
}
